# The other results are listed elsewhere or left out. Shown are side measurements of this screen, not its main read-out; they come without a call. The list favours compounds with an active or inconclusive main result. Words in brackets tell the shape of the fitted curve; partial curves, single points and poor fits give uncertain potencies.
# Experiment: qHTS Assay for Modulators of Lamin A Splicing
# Conditions: HeLa LMNA splicing GFP/RFP minigene ratio, 48 h
# Outline: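 Read-out is the ratio of GFP to DsRed2 object intensity, acquired by 488 nm laser-scanning cytometry on HeLa lamin A-EGFP minigene reporter cells. Compound incubation 48 hrs at 37 °C in Opti-MEM with 2% FBS; DMSO 0.5% final.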
# [1] = measured here: GFP splicing reporter channel
# [2] = measured here: RFP viability control channel
Structure (SMILES),AC50 [1],AC50 [2]
Cc1cccc(OCCCC(=O)Nc2ccc3c(c2)OCO3)c1,"35.5 µM [rising, single point]",–
Cn1c2c(c(=O)[nH]c1=O)C(c1ccc(O)cc1)C1=C(N2)c2ccccc2C1=O (centres undefined),"35.5 µM [falling, single point]","3.55 µM [rising, single point]"
O=S(=O)(c1ccccc1)N(CC(O)Cn1c2ccccc2c2ccccc21)c1ccccc1 (centres undefined),"22.4 µM [falling, single point]","14.1 µM [falling, partial curve]"
CSc1sc(C(=O)OC(C)C)c2c1C(=O)CC(C)(C)C2,–,"1.26 µM [falling, partial curve, poor fit]"
CCC(=O)N(NC1=NS(=O)(=O)c2ccccc21)S(=O)(=O)c1ccc(C)cc1,–,"0.0251 µM [falling, partial curve, poor fit]"
CC1CC(C)CN(S(=O)(=O)c2ccccc2[N+](=O)[O-])C1 (centres undefined),–,"11.2 µM [rising, partial curve]"
Cc1ccccc1-c1noc(N)c1C#N,"35.5 µM [falling, single point]",–
CC(O)CNc1nc2ccccc2n1CC(=O)NC12CC3CC(CC(C3)C1)C2 (centres undefined),"35.5 µM [falling, partial curve, poor fit]",–
Cn1c(=O)c2c(ncn2C[C@@H](O)CO)n(C)c1=O,"0.251 µM [falling, partial curve, poor fit]","0.00708 µM [falling, full curve, poor fit]"
Cc1cccc(-c2cc3nc4c(c(NCc5ccco5)n3n2)CCCC4)c1,"6.31 µM [falling, partial curve]","5.62 µM [falling, partial curve]"
CCOc1ccc(-n2c(SCc3ccc([N+](=O)[O-])cc3)nnc2-c2ccc(OC)cc2)cc1,"25.1 µM [rising, single point]","35.5 µM [rising, single point]"
CCCc1cc(=O)oc2c(C)c3occ(C)c3cc12,"12.6 µM [rising, single point]",–
O=c1c2ccccc2nc2n1-c1ccccc1CCC2,–,"1.41 µM [falling, partial curve]"
Cc1ccc(Cl)cc1N1CCN(C(=O)CN(C2CCCCC2)S(C)(=O)=O)CC1,–,"15.8 µM [rising, partial curve]"
COc1ccc(C2=CC(c3ccc(C)cc3)n3nnnc3N2)cc1 (centres undefined),–,"31.6 µM [rising, single point]"
CCOC(=O)c1[nH]c(C)c(C(=O)Nc2ccccc2C)c1C,–,"0.501 µM [rising, full curve, poor fit]"
O=C1CCC(=O)N1CCCCCc1nc(-c2ccccc2)no1,–,"11.2 µM [rising, partial curve, poor fit]"
Cc1cc(C)c2c(c1)[C@@H]1C=CC[C@@H]1[C@H](c1ccc(S(=O)(=O)N3CCOCC3)cc1)N2,"2.51 µM [rising, full curve]",–
CCOC(=O)N1CCN(c2ncnc3c2[nH]c2ccc(OC)cc23)CC1,–,"5.01 µM [rising, partial curve]"
Cc1ccccc1Oc1ccc(NC(=O)C2CC=CCC2C(=O)O)cc1 (centres undefined),–,"22.4 µM [rising, single point]"

# Whole records as entered above.
# `Cn1c(=O)c2c(ncn2C[C@@H](O)CO)n(C)c1=O` is listed as AC50 [1]: 0.251 µM [falling, partial curve, poor fit]; AC50 [2]: 0.00708 µM [falling, full curve, poor fit]
# `O=C1CCC(=O)N1CCCCCc1nc(-c2ccccc2)no1` is listed as AC50 [2]: 11.2 µM [rising, partial curve, poor fit]
# `CCCc1cc(=O)oc2c(C)c3occ(C)c3cc12` is listed as AC50 [1]: 12.6 µM [rising, single point]
# `CC1CC(C)CN(S(=O)(=O)c2ccccc2[N+](=O)[O-])C1` (centres undefined) is listed as AC50 [2]: 11.2 µM [rising, partial curve]

# Later entries

Structure (SMILES),AC50 [1],AC50 [2]
COc1ccc(C)cc1NC(=O)CN1CCN(c2ccc(F)cc2)CC1,"11.2 µM [rising, partial curve]","12.6 µM [rising, partial curve]"
Cc1ccc(N(CC(=O)NCCSCc2ccco2)S(=O)(=O)c2ccc(F)cc2)cc1,"35.5 µM [falling, single point]","20 µM [falling, partial curve]"
CC(C)Cn1c(SCc2cccc(F)c2)nc2ccsc2c1=O,–,"31.6 µM [rising, single point]"
CC(=O)c1cc2c(cc1N/C(=N/S(=O)(=O)c1ccc(C)cc1)c1ccc(Cl)cc1)OCO2,"1.58 µM [rising, partial curve, poor fit]","2 µM [rising, partial curve, poor fit]"
COc1ccc(Cc2nc3ccc(C(=O)NCCc4ccc(Cl)cc4)cc3o2)cc1,"5.62 µM [falling, partial curve, poor fit]",–
O=C(Nc1ccc(Br)c(Cl)c1)C1CC1,–,"11.2 µM [rising, partial curve, poor fit]"
O=C(NCCc1ccccc1)c1ccc2nc(-c3ccco3)c(-c3ccco3)nc2c1,–,"15.8 µM [rising, single point]"
N/C(=N/OC(=O)c1ccccc1Cl)c1nonc1N,"1.12 µM [rising, full curve]",–
O=C(CSc1nnc(-c2ccccc2)n1Cc1ccccc1)NNC(=O)c1ccccc1O,"35.5 µM [rising, single point]","35.5 µM [rising, single point]"
Cc1ccccc1NC1=C(Cl)C(=O)OC1NC(=O)c1ccccc1 (centres undefined),–,"25.1 µM [rising, single point]"
COc1cc2c(cc1NC(=O)CSc1nccn1C)oc1ccccc12,–,"14.1 µM [rising, partial curve, poor fit]"
COCCNC(=O)C(OC(=O)c1cccs1)c1ccc(F)cc1 (centres undefined),"1.12 µM [falling, full curve, poor fit]","0.126 µM [falling, full curve]"
COc1ccccc1-c1cc(C(F)(F)F)nc(S(=O)(=O)CCCC(=O)O)n1,"35.5 µM [falling, single point]","35.5 µM [falling, single point]"
O=C1CC(N2CCN(c3nc4ccccc4s3)CC2)C(=O)N1Cc1cccs1 (centres undefined),–,"22.4 µM [rising, single point]"
COc1cccc(NS(=O)(=O)c2cc(-c3cnc(C4CC4)o3)ccc2C)c1,–,"1.12 µM [rising, full curve]"
O=C(COc1ccc(Cl)cc1)Nc1nnc(-c2ccc3c(c2)CCCC3)o1,–,"2.51 µM [rising, partial curve]"
CCCCC1CC(C)(C(=O)CSc2nc3ccccc3s2)OC1=O (centres undefined),–,"15.8 µM [rising, single point]"
CCCCCc1c(C)nc(Nc2ccccc2)[nH]c1=O,–,"14.1 µM [rising, single point]"
Cc1ccc(O)c(-c2cc(C(=O)Nc3ccc(S(=O)(=O)N4CC(C)OC(C)C4)cc3)[nH]n2)c1 (centres undefined),–,"14.1 µM [rising, single point]"
N#Cc1cc2c(nc1SCC(=O)NCc1ccc3c(c1)OCO3)CCCCC2,"12.6 µM [rising, single point]","20 µM [rising, single point]"

Structure (SMILES),AC50 [1],AC50 [2]
COc1ccc(N2C(=O)CCSC23C(=O)N(Cc2ccc(F)cc2)c2ccccc23)cc1Cl (centres undefined),–,"3.55 µM [rising, partial curve]"
CCc1ccc(N=c2c([N+](=O)[O-])nn(-c3ccccc3)n2O)cc1,–,"22.4 µM [rising, single point]"
CCn1c(SCC(=O)Nc2cc(C)ccc2C)nnc1-c1cnccn1,–,"2 µM [falling, full curve, poor fit]"
O=C(Nc1ccc(Cl)cc1C(=O)N1CCOCC1)c1cccc([N+](=O)[O-])c1,–,"8.91 µM [rising, partial curve]"
O=C(CC1N=C2c3ccccc3N=C(SCc3ccccc3Cl)N2C1=O)NC1CCCCC1 (centres undefined),–,"0.0708 µM [falling, full curve, poor fit]"
CCOc1cc(CNC(C)(C)CO)cc(Br)c1OCc1ccc(Cl)cc1Cl,"15.8 µM [falling, single point]","7.08 µM [falling, single point]"
C/C(=N\NC(=O)C(=O)Nc1cccc(Cl)c1)c1ccncc1,"1.78 µM [rising, full curve]",–
CC(CCc1ccccc1)NC(=O)c1cccnc1 (centres undefined),–,"1.41 µM [rising, full curve, poor fit]"
O=S(Cc1cc(Sc2ccccc2)nc(-c2ccccc2)n1)c1ccccc1 (centres undefined),"8.91 µM [rising, partial curve]","14.1 µM [rising, single point]"
CCOC(=O)N1CCC(n2c(SCC(=O)Nc3nccs3)nc3ccsc3c2=O)CC1,–,"8.91 µM [rising, partial curve, poor fit]"
Clc1ccc(Cn2ncc3c(N4CCCCC4)ncnc32)c(Cl)c1,"35.5 µM [rising, single point]",–
COc1ccc(Br)cc1CNC(=O)CCSCc1ccc(Cl)cc1,–,"0.0562 µM [rising, full curve, poor fit]"
COc1ccc(CCNC(=O)CCCOc2ccc(C)cc2)cc1OC,"12.6 µM [rising, single point]","35.5 µM [rising, single point]"
O=c1c(Cc2ccc(F)cc2)c(O)ccn1Cc1cccc(Cl)c1,–,"11.2 µM [rising, partial curve]"
CCOc1cccc(C(=O)NC(=S)Nc2cccc(NC(=O)c3ccccc3Cl)c2)c1,–,"11.2 µM [rising, single point]"
C/C(=N\Nc1nc2ccccc2s1)c1ccc2c(c1)OCO2,"8.91 µM [rising, partial curve, poor fit]","31.6 µM [rising, partial curve]"
COC(=O)[C@@H](NC(=O)CCc1nnc(-c2ccsc2)o1)C(C)C,–,"3.98 µM [falling, partial curve, poor fit]"
CCC(=O)c1ccc(OCC(=O)NCC2(N3CCCCC3)CCCCC2)cc1,"2.24 µM [rising, full curve, poor fit]",–
